Data source: PubChem BioAssay AID1259308 (NCATS, 2017)
The whole screen tested about 59,000 reagents; this is a random part of them. In the full data, about 1,510 (2.6%) were called active. 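Calls use total luciferase alone and ignore viability, so some active siRNAs may act by altering cell number.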 A number with no mark means an inactive call. The numbers tell different reagents against one gene apart. Further read-outs or replicates are left out here. Reagent sequences are not shown.

Purpose: 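Candidate targets for better recombinant protein yield in mammalian cells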 (primary screen)
Cell system: human HEK293 embryonic kidney cells stably expressing firefly luciferase (HEK-CMV-Luc2-Hygro)
Knock-down reagent: single siRNA against human genes, 0.8 pmol siRNA per well
Duration: 72 h
Detection: 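Luciferase light (ONE-Glo) measured on one replicate plate set and viability (CellTiter-Glo) on the other, scaled to a negative control siRNA, with robust z-scores and luciferase per cell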
Reading the numbers: total luciferase, z-score and total luciferase, % of control: higher = more reporter protein produced
Hit rule: 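Active when the median/MAD z-score for overall luciferase is greater than 3; a gene was taken forward for validation with new siRNAs if at least two of its three siRNAs passed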
Meaning of the calls: active = raised luciferase; inactive = no rise

| target gene | siRNA no. | total luciferase, z-score | total luciferase, % of control |
| --- | --- | --- | --- |
| GALNT18 (GeneID 374378) | 1 | -0.8 | 66 |
| GALNT18 (GeneID 374378) | 2 | -0.625 | 69.5 |
| GALNT18 (GeneID 374378) | 3 | 0.0707 | 83.3 |
| PSMB4 (GeneID 5692) | 1 | -1.5 | 52.1 |
| PSMB4 (GeneID 5692) | 2 | 0.0607 | 83.1 |
| PSMB4 (GeneID 5692) | 3 | 0.0564 | 83 |
| ITPR2 (GeneID 3709) | 1 | -0.534 | 71.3 |
| ITPR2 (GeneID 3709) | 2 | 0.166 | 85.2 |
| ITPR2 (GeneID 3709) | 3 | -0.631 | 69.3 |
| DAO (GeneID 1610) | 1 | 0.523 | 92.3 |
| DAO (GeneID 1610) | 2 | -0.627 | 69.4 |
| DAO (GeneID 1610) | 3 | 0.0284 | 82.5 |
| PARP12 (GeneID 64761) | 1 | -0.913 | 63.7 |
| PARP12 (GeneID 64761) | 2 | 0.0394 | 82.7 |
| PARP12 (GeneID 64761) | 3 | 0.254 | 86.9 |
| RCAN2 (GeneID 10231) | 1 | 0.164 | 85.1 |
| RCAN2 (GeneID 10231) | 2 | -0.0186 | 81.5 |
| RCAN2 (GeneID 10231) | 3 | -1.21 | 57.7 |
| FSAF1 (GeneID 128061) | 1 | -1.83 | 45.5 |
| FSAF1 (GeneID 128061) | 2 | -0.758 | 66.8 |
| FSAF1 (GeneID 128061) | 3 | -0.431 | 73.3 |
| GPX7 (GeneID 2882) | 1 | 0.174 | 85.3 |
| GPX7 (GeneID 2882) | 2 | 0.485 | 91.5 |
| GPX7 (GeneID 2882) | 3 | -0.171 | 78.5 |
| ZBED3-AS1 (GeneID 728723) | 1 | -0.168 | 78.5 |
| ZBED3-AS1 (GeneID 728723) | 2 | 0.249 | 86.8 |
| ZBED3-AS1 (GeneID 728723) | 3 | -1.32 | 55.7 |
| CRYGN (GeneID 155051) | 1 | 1.76 | 117 |
| CRYGN (GeneID 155051) | 2 | 0.543 | 92.7 |
| CRYGN (GeneID 155051) | 3 | -1.77 | 46.7 |
| BCL2L12 (GeneID 83596) | 1 | 1.36 | 109 |
| BCL2L12 (GeneID 83596) | 2 | -0.501 | 71.9 |
| BCL2L12 (GeneID 83596) | 3 | -1.46 | 52.8 |
| LGR4 (GeneID 55366) | 1 | 0.0201 | 82.3 |
| LGR4 (GeneID 55366) | 2 | 0.21 | 86.1 |
| LGR4 (GeneID 55366) | 3 | -0.075 | 80.4 |
| PPP1R21 (GeneID 129285) | 1 | -0.647 | 69 |
| PPP1R21 (GeneID 129285) | 2 | 1.01 | 102 |
| PPP1R21 (GeneID 129285) | 3 | 2.05 | 123 |

Laid out differently: entries from further up.
target gene	siRNA no.	total luciferase, z-score	total luciferase, % of control
CRYGN (GeneID 155051)	2	0.543	92.7
CRYGN (GeneID 155051)	3	-1.77	46.7
BCL2L12 (GeneID 83596)	1	1.36	109
BCL2L12 (GeneID 83596)	2	-0.501	71.9

The listing continues.
| target gene | siRNA no. | total luciferase, z-score | total luciferase, % of control |
| --- | --- | --- | --- |
| KIF4B (GeneID 285643) | 1 | -0.2 | 77.9 |
| KIF4B (GeneID 285643) | 2 | -1.47 | 52.6 |
| KIF4B (GeneID 285643) | 3 | 1.02 | 102 |
| CICP18 (GeneID 646070) | 1 | -0.517 | 71.6 |
| CICP18 (GeneID 646070) | 2 | 0.595 | 93.7 |
| CICP18 (GeneID 646070) | 3 | -0.597 | 70 |
| NIPSNAP3B (GeneID 55335) | 1 | 0.085 | 83.6 |
| NIPSNAP3B (GeneID 55335) | 2 | 0.838 | 98.6 |
| NIPSNAP3B (GeneID 55335) | 3 | 2.42 | 130 |
| ASIC4 (GeneID 55515) | 1 | -0.368 | 74.6 |
| ASIC4 (GeneID 55515) | 2 | -0.79 | 66.2 |
| ASIC4 (GeneID 55515) | 3 | 1.94 | 121 |
| CACTIN (GeneID 58509) | 1 | 0.792 | 97.6 |
| CACTIN (GeneID 58509) | 2 | 1.78 | 117 |
| CACTIN (GeneID 58509) | 3 | 1.13 | 104 |
| CDC6 (GeneID 990) | 1 | -0.865 | 64.7 |
| CDC6 (GeneID 990) | 2 | -0.28 | 76.3 |
| CDC6 (GeneID 990) | 3 | -0.741 | 67.1 |
| ABHD8 (GeneID 79575) | 1 | -2.32 | 35.8 |
| ABHD8 (GeneID 79575) | 2 | -0.609 | 69.8 |
| ABHD8 (GeneID 79575) | 3 | 0.938 | 101 |
| NAPA (GeneID 8775) | 1 | 0.455 | 90.9 |
| NAPA (GeneID 8775) | 2 | 0.53 | 92.4 |
| NAPA (GeneID 8775) | 3 | -0.354 | 74.8 |
| SEMA4F (GeneID 10505) | 1 | -0.505 | 71.8 |
| SEMA4F (GeneID 10505) | 2 | -0.254 | 76.8 |
| SEMA4F (GeneID 10505) | 3 | 0.253 | 86.9 |
| LOC646804 (GeneID 646804) | 1 | 0.183 | 85.5 |
| LOC646804 (GeneID 646804) | 2 | 0.339 | 88.6 |
| LOC646804 (GeneID 646804) | 3 | 1.55 | 113 |
| DTL (GeneID 51514) | 1 | 1.26 | 107 |
| DTL (GeneID 51514) | 2 | 0.118 | 84.2 |
| DTL (GeneID 51514) | 3 | -0.751 | 67 |
| WDPCP (GeneID 51057) | 1 | 3.73 (active) | 156 |
| WDPCP (GeneID 51057) | 2 | -1.06 | 60.9 |
| WDPCP (GeneID 51057) | 3 | -0.766 | 66.6 |
